Measured values reported in publication PMC3842039.

Columns and labels:
[1] = molecular target: T1, AtGIP2, full length, yeast two-hybrid fusion (Arabidopsis thaliana) (UniProt Q9C9T3); experiment: two-hybrid; AH109 cells co-transformed with bait (Gal4 BD) and prey (Gal4 AD) plasmids, growth on -HLW + 3-AT, 2 days at 30°C
T1 sequence: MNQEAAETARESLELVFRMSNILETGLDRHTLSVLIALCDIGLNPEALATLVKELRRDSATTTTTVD

[2] = molecular target: T2, AtGIP1 (GCP3-Interacting Protein 1), full length, yeast two-hybrid fusion (Arabidopsis thaliana) (UniProt Q9M0N8); experiment: as above
T2 sequence: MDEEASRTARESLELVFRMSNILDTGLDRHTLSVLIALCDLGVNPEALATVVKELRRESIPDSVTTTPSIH

[3] = molecular target: T2, AtGIP1 (GCP3-Interacting Protein 1), full length, yeast two-hybrid fusion (Arabidopsis thaliana); experiment: two-hybrid; screen of an A. thaliana cDNA library (Clontech) with BD-AtGIP1 bait (pAS2ΔΔ) in yeast CG1945; selection on medium lacking histidine, tryptophan and leucine with 20 mM 3-AT; clones positive for β-galactosidase activity
[4] = molecular target: T1, AtGIP2, full length, yeast two-hybrid fusion (Arabidopsis thaliana); experiment: two-hybrid; AH109 cells co-transformed with BD bait and AD prey, spotted directly and after ten-fold serial dilutions, growth on high-stringency (-AHTL) medium, 2 days at 30°C
[5] = molecular target: T2, AtGIP1 (GCP3-Interacting Protein 1), full length, yeast two-hybrid fusion (Arabidopsis thaliana); experiment: as above

Substance | binding [1] | binding [2] | binding [3] | binding [4] | binding [5]
AtTSA1 C-terminal domain D1 (273 to 755) (Arabidopsis thaliana) (domain or fragment) | binds | binds | binds | no binding (only under high stringent conditions) | binds
AtTSA1 C-terminal domain D2 (326 to 755) (Arabidopsis thaliana) (domain or fragment) | – | binds | binds | – | –
AtTSA1 C-terminal domain D3 (405 to 755) (Arabidopsis thaliana) (domain or fragment) | – | binds | binds | – | –
AtTSA1 C-terminal domain D4 (633 to 755) (Arabidopsis thaliana) (domain or fragment) | binds | binds | binds | binds | binds

Results are given in words; binding and its absence hold for the method and conditions named. Binding calls can cover weak binding; strength is not graded here. Where a sequence is shown, tags or fusion partners need not be part of it.
